Source: the supplement of paper PMC10849652
Some of the results follow.

The chains behind the UniProt entries cited, without tags or fusion partners. Where a name states a change or a piece, a line headed by the entry shows the natural chain unless it says otherwise.
UniProt Q9BV81: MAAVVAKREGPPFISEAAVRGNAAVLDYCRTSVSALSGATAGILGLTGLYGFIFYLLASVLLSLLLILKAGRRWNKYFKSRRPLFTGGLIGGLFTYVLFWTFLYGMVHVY
UniProt Q8TE02: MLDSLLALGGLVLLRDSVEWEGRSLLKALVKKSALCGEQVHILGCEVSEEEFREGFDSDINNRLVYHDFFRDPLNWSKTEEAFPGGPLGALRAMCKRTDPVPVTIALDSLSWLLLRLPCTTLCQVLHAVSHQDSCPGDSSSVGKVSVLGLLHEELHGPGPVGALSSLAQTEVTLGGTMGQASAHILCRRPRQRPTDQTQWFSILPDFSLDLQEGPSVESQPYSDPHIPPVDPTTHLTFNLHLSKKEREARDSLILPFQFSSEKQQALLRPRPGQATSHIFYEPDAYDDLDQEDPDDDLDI
UniProt P06730, whole entry, looked up: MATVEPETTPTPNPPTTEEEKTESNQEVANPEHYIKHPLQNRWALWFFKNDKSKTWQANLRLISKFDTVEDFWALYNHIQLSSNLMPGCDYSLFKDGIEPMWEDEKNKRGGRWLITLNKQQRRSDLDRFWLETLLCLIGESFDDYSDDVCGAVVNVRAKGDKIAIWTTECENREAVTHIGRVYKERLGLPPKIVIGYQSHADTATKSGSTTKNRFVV
UniProt P20042, whole entry, looked up: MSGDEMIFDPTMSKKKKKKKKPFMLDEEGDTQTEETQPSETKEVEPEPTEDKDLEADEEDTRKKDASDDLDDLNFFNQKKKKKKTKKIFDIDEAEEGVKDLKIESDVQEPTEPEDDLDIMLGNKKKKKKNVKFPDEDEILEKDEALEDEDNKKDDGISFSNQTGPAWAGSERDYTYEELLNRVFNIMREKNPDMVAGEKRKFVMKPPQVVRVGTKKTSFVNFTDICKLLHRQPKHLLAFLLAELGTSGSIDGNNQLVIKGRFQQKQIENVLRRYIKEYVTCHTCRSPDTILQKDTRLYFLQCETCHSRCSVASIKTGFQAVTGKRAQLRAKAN
UniProt Q969X5: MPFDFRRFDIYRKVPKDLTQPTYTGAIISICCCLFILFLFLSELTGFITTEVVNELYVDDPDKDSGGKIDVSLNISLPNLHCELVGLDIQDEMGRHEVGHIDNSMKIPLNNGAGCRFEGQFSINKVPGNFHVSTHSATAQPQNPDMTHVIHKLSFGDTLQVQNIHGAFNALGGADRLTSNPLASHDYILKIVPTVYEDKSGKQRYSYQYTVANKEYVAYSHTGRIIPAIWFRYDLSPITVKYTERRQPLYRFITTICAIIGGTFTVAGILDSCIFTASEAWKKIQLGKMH
UniProt Q96EB1: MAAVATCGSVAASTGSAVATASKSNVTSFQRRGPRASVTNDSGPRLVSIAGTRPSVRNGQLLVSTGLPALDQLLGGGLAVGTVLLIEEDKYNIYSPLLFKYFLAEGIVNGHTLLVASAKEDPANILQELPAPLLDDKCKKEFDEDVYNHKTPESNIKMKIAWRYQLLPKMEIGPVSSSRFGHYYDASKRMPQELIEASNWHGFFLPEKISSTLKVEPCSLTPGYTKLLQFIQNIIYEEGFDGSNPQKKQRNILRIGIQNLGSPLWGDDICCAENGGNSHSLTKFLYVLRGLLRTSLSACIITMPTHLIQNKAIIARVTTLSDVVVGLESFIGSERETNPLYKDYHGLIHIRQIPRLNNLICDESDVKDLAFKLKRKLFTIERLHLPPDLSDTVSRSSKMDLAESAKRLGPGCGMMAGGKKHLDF
UniProt Q5UCC4: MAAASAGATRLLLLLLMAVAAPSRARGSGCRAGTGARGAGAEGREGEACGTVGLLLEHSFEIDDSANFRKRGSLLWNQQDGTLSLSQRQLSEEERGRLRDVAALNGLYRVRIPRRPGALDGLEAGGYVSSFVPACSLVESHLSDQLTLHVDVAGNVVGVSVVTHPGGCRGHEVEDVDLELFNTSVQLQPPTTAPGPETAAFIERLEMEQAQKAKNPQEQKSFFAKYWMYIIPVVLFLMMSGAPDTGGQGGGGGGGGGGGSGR
UniProt Q8N766: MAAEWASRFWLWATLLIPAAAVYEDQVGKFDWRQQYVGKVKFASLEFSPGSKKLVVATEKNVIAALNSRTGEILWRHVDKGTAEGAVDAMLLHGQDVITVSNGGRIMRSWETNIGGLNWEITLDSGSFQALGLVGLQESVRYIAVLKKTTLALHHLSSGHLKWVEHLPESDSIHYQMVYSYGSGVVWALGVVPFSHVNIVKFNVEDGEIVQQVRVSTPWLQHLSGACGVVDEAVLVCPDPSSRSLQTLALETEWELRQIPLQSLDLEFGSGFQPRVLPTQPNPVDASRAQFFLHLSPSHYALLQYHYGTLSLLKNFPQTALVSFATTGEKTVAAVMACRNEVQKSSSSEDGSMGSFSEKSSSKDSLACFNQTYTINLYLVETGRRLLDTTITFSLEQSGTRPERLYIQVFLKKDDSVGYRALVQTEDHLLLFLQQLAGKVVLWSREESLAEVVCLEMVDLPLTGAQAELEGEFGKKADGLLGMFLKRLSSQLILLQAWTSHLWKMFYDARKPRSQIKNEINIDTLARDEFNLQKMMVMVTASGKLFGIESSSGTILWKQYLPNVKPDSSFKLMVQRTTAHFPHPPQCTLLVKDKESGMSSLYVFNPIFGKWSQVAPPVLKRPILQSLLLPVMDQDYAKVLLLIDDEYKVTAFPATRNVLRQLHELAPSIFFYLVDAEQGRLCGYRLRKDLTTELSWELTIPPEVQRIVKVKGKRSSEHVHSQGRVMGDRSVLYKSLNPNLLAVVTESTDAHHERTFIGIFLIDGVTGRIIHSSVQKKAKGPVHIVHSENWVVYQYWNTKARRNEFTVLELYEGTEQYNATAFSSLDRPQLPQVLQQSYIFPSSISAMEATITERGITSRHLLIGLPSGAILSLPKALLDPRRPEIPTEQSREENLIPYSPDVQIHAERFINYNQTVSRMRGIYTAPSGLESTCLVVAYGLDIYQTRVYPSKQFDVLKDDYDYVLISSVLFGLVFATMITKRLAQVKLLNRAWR
UniProt P50402: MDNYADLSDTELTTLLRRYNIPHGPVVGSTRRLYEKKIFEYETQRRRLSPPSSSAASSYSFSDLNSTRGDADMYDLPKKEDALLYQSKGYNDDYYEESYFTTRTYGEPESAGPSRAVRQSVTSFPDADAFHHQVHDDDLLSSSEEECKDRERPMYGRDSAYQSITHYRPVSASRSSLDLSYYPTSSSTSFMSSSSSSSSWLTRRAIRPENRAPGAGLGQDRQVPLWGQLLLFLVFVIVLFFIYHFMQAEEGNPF
UniProt P07814: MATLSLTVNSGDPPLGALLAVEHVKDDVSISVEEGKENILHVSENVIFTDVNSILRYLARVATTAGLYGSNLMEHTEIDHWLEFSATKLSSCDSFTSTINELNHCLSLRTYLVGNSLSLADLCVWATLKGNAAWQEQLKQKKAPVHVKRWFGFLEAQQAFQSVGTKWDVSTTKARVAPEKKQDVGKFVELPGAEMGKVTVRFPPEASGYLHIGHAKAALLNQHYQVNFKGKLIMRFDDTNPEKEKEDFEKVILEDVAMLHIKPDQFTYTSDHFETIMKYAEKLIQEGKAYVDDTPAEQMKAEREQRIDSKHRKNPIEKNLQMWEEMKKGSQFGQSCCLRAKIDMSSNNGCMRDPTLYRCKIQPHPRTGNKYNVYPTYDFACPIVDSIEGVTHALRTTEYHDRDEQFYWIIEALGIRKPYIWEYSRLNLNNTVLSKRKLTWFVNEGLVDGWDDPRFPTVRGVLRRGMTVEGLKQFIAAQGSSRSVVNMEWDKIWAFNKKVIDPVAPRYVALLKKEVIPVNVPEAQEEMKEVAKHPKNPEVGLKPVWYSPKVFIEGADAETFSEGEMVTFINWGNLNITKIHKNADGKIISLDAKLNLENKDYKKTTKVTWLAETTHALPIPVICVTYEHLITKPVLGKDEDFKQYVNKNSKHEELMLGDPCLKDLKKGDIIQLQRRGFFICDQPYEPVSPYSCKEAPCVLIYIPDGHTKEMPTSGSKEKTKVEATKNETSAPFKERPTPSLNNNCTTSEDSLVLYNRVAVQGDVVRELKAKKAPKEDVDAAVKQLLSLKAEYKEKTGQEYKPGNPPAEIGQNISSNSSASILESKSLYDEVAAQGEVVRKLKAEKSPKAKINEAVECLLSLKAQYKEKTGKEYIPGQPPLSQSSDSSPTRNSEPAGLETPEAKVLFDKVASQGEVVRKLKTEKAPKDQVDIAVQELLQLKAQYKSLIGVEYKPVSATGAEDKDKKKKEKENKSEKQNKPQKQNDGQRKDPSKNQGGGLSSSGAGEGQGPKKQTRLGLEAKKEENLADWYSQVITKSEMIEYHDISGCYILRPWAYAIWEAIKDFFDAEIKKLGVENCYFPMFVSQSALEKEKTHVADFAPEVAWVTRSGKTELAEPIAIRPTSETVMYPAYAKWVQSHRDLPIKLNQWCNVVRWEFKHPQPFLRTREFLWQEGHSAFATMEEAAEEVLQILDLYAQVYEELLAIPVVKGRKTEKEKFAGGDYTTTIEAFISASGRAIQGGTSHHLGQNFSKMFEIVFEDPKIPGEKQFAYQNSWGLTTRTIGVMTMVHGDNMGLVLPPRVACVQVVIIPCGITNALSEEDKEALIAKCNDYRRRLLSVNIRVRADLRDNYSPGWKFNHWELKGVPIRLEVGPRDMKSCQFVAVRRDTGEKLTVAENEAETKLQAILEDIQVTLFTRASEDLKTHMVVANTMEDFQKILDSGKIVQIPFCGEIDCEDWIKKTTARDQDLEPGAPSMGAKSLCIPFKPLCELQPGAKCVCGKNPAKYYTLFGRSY
UniProt Q7L5Y1: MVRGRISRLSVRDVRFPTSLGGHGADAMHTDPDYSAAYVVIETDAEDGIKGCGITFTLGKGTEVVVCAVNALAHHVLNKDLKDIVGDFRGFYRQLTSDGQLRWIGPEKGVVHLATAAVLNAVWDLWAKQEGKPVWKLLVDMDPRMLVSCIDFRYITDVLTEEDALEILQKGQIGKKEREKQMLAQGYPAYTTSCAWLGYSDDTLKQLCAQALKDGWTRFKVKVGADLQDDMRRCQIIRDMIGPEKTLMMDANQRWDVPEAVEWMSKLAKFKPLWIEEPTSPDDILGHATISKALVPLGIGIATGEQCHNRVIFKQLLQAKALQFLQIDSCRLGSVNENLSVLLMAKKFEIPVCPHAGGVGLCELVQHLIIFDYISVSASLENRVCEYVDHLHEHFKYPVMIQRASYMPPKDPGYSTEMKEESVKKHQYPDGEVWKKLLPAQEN
UniProt P23588, whole entry, looked up: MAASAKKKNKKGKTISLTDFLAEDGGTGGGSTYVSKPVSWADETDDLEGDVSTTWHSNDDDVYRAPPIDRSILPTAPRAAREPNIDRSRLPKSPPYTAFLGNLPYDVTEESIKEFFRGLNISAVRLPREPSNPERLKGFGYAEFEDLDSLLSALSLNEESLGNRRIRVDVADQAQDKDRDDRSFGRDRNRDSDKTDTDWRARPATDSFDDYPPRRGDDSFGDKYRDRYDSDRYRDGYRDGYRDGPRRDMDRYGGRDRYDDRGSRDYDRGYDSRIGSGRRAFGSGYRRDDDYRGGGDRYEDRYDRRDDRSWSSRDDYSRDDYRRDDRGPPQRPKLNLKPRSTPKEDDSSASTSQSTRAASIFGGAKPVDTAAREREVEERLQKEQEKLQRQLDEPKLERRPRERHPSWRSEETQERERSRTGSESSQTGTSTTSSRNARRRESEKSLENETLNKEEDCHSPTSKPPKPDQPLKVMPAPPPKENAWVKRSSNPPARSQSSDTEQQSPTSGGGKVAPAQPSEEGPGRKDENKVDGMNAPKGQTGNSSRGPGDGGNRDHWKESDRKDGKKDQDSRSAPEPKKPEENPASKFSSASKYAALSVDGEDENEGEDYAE
UniProt Q8IZ81: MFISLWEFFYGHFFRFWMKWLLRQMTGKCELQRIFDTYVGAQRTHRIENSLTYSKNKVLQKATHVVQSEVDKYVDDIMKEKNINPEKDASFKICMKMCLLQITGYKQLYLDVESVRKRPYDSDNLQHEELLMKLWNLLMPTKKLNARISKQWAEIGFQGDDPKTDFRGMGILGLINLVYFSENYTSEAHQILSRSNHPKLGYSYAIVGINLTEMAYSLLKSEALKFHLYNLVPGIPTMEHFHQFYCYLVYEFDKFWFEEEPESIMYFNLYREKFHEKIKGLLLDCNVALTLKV
UniProt P63241: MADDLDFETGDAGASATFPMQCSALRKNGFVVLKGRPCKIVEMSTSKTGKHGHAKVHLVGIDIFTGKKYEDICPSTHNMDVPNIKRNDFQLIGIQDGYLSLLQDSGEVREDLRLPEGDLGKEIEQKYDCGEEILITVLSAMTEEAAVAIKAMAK

What was measured:
Experiment in all cases: log2 fold change, soluble protein after heating vs DMSO (PISA); higher = thermal stabilisation; K562 lysate, 10 uM; active = over 0.2 and 3.5 SD of the protein, either way, in both replicates (recomputed)
erlotinib = compound: C#Cc1cccc(Nc2ncnc3cc(OCCOC)c(OCCOC)cc23)c1 [erlotinib]
Procedure, shortened: (§1)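 Following dounce homogenisation of K562 pellets in PBS pH 7.4 with 1 mM MgCl2, crude extract at 1 mg/mL protein was incubated for 30 min with 10 μM compound. Aliquots were then heated for 3 min over 48°C-58°C and pooled, NP-40 was added to 0.5% at 4°C, and soluble protein was recovered as the supernatant at 21,000xg for 90 min. Channel-sum-equalised TMTpro 16plex LC-MS/MS quantified this protein. Each value, from duplicates, is a log-two fold change in thermal stability relative to solvent controls.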

[1] = compound: C/C(=N\NC(=O)C1=CC(=CC=C1)S(=O)(=O)N2CCOCC2)/C3=C(C=CC(=C3)Cl)O
Procedure, shortened: as §1

[2] = compound: C1=CC(=CC=C1C2=NC3=C(N2)C=C(C=C3)C(=O)N)OC4=CC=C(C=C4)Cl
Procedure, shortened: as §1

[3] = compound: C1=CC2=C(C=CC(=C2)/C=C\3/C(=O)NC(=NCC4=CC=CS4)S3)N=C1
Procedure, shortened: as §1

[4] = compound: C1=CC2=NC=CN=C2C=C1/C=C/3\C(=O)NC(=O)S3
Procedure, shortened: as §1

[5] = compound: C1=CC=C(C=C1)C2=NC(=C(N2)C3=CC=NC=C3)C4=CC(=C(C=C4)Cl)O
Procedure, shortened: as §1

[6] = compound: C1=CC=C2C(=C1)C3=NNC4=CC=CC(=C43)C2=O
Procedure, shortened: as §1

[7] = compound: C1CCN(C1)C(=O)NC2=CC=CC(=C2)NC3=NC=C(C(=N3)NCCC4=CN=CN4)Br
Procedure, shortened: as §1

[8] = compound: C1CN(CCC1(CC2=CC=C(C=C2)Cl)N)C3=NC=NC4=C3C=CN4
Procedure, shortened: as §1

IRAK-1-4 Inhibitor I = compound: C1COCCN1CCN2C3=CC=CC=C3N=C2NC(=O)C4=CC(=CC=C4)[N+](=O)[O-] [IRAK-1-4 Inhibitor I]
Procedure, shortened: as §1

ibrutinib = compound: C=CC(=O)N1CCC[C@@H](n2nc(-c3ccc(Oc4ccccc4)cc3)c3c(N)ncnc32)C1 [ibrutinib]
Procedure, shortened: as §1

[9] = compound: CC(=O)c1cnc2ccc(-c3cc(Cl)c(O)c(Cl)c3)nc2c1N[C@H]1CC[C@H](CN(C)C)CC1
Procedure, shortened: as §1

ralimetinib = compound: CC(C)(C)Cn1c(N)nc2ccc(-c3[nH]c(C(C)(C)C)nc3-c3ccc(F)cc3)nc21 [ralimetinib]
Procedure, shortened: as §1

[10] = compound: CC(C)(O)CC(=O)NCCn1ccc2ncnc(Nc3ccc(Oc4cccc(C(F)(F)F)c4)c(Cl)c3)c21
Procedure, shortened: as §1

[11] = compound: CC(C)C1=C2N=C(C=C(N2N=C1)NCC3=CC=CC=C3)NCCCCCCN
Procedure, shortened: as §1

[12] = compound: CC1=C(C(CC(=O)N1)C2=CC=C(C=C2)C(F)(F)F)C(=O)NC3=C(C=C4C(=C3)C=NN4)F
Procedure, shortened: as §1

[13] = compound: CC1=C(C2=C(C=C1)C(=O)C3=CC=CC=C3N2CCCN)C
Procedure, shortened: as §1

[14] = compound: CC1=C(C=C(C=C1)NC(=O)C2=CC(=CC=C2)C(C)(C)C#N)NC3=CC4=C(C=C3)N=CN(C4=O)C
Procedure, shortened: as §1

[15] = compound: CC1=C(C=C(C=C1)NC(=O)C2=CC(=CC=C2)N(C)C)NC(=O)C3=CC=C(C=C3)O
Procedure, shortened: as §1

[16] = compound: CC1=CC=C(C=C1)SC2=C3C=C(SC3=CN=C2)C(=O)N
Procedure, shortened: as §1

Measured: log2 fold change

EMC6 (UniProt Q9BV81)
inactive: erlotinib -0.004 | [1] -0.056 | [2] -0.076 | [3] 0.003 | [4] 0.054 | [5] -0.011 | [6] -0.029 | [7] 0.017 | [8] 0.071 | IRAK-1-4 Inhibitor I 0.095 | ibrutinib 0.01 | [9] 0.036 | ralimetinib -0.069 | [10] 0.006 | [11] 0.016 | [12] 0.094 | [13] -0.089 | [14] 0.017 | [15] 0.189 | [16] 0.033

ELP5 isoform 4 (UniProt Q8TE02)
inactive: erlotinib 0.072 | [1] -0.063 | [2] 0.029 | [3] 0.031 | [4] 0.018 | [5] -0.012 | [6] 0.009 | [7] -0.019 | [8] -0.056 | IRAK-1-4 Inhibitor I -0.002 | ibrutinib -0.018 | [9] 0.027 | ralimetinib 0.023 | [10] -0.04 | [11] -0.007 | [12] 0.006 | [13] 0.029 | [14] 0.053 | [15] 0.033 | [16] -0.009

EIF4E isoform 2 (UniProt P06730)
inactive: erlotinib -0.014 | [1] -0.251 | [2] -0.033 | [3] -0.031 | [4] 0.039 | [5] -0.008 | [6] -0.009 | [7] 0.053 | [8] -0.014 | IRAK-1-4 Inhibitor I -0.01 | ibrutinib 0.031 | [9] 0.006 | ralimetinib 0.006 | [10] 0.003 | [11] -0.033 | [12] 0.003 | [13] 0.001 | [14] 0 | [15] 0.018 | [16] 0.003

EIF2S2 (UniProt P20042)
inactive: erlotinib -0.021 | [1] -0.048 | [2] 0.019 | [3] -0.003 | [4] -0.019 | [5] 0.015 | [6] -0.027 | [7] 0.007 | [8] 0.019 | IRAK-1-4 Inhibitor I -0.008 | ibrutinib -0.023 | [9] -0.011 | ralimetinib -0.018 | [10] -0.015 | [11] 0.007 | [12] -0.012 | [13] -0.011 | [14] 0.007 | [15] 0.01 | [16] 0.001

ERGIC1 (UniProt Q969X5)
inactive: erlotinib -0.007 | [1] -0.169 | [2] 0.006 | [3] -0.017 | [4] 0.032 | [5] -0.067 | [6] -0.036 | [7] -0.019 | [8] -0.02 | IRAK-1-4 Inhibitor I -0.02 | ibrutinib 0.027 | [9] 0.014 | ralimetinib -0.032 | [10] -0.044 | [11] -0.008 | [12] -0.005 | [13] -0.029 | [14] -0.039 | [15] 0.019 | [16] -0.003

ELP4 (UniProt Q96EB1)
inactive: erlotinib -0.019 | [1] -0.022 | [2] 0.022 | [3] 0.024 | [4] 0.019 | [5] 0.016 | [6] 0.006 | [7] -0.029 | [8] -0.022 | IRAK-1-4 Inhibitor I 0.031 | ibrutinib -0.002 | [9] 0.009 | ralimetinib -0.013 | [10] -0.029 | [11] -0.023 | [12] 0.023 | [13] -0.012 | [14] 0.01 | [15] 0.003 | [16] -0.008

EIF2AK4 (UniProt Q9P2K8)
inactive: erlotinib -0.029 | [1] 0.018 | [2] 0.017 | [3] 0.001 | [4] -0.014 | [5] 0.007 | [6] -0.026 | [7] 0.009 | [8] 0.016 | IRAK-1-4 Inhibitor I -0.002 | ibrutinib 0.026 | [9] -0.053 | ralimetinib 0.042 | [10] -0.032 | [11] 0.023 | [12] -0.005 | [13] -0.063 | [14] -0.003 | [15] -0.007 | [16] -0.021

EMC10 (UniProt Q5UCC4)
inactive: erlotinib 0.036 | [1] -0.05 | [2] 0.015 | [3] 0.051 | [4] -0.034 | [5] -0.005 | [6] -0.072 | [7] 0.022 | [8] 0.002 | IRAK-1-4 Inhibitor I 0.052 | ibrutinib -0.05 | [9] -0.022 | ralimetinib -0.032 | [10] -0.027 | [11] -0.061 | [12] 0 | [13] 0.022 | [14] 0.076 | [15] -0.037 | [16] -0.025

EMC1 (UniProt Q8N766)
inactive: erlotinib -0.006 | [1] 0.009 | [2] -0.032 | [3] 0.051 | [4] 0.01 | [5] -0.009 | [6] -0.039 | [7] 0.009 | [8] -0.015 | IRAK-1-4 Inhibitor I 0.008 | ibrutinib 0.009 | [9] 0.028 | ralimetinib 0.009 | [10] -0.02 | [11] -0.042 | [12] -0.004 | [13] 0.006 | [14] -0.018 | [15] -0.008 | [16] 0.011

EMD (UniProt P50402)
inactive: erlotinib -0.027 | [1] 0.035 | [2] -0.009 | [3] -0.023 | [4] -0.053 | [5] -0.047 | [6] -0.079 | [7] -0.004 | [8] -0.028 | IRAK-1-4 Inhibitor I -0.066 | ibrutinib 0.012 | [9] -0.002 | ralimetinib 0.041 | [10] 0.042 | [11] -0.025 | [12] -0.032 | [13] -0.026 | [14] 0.022 | [15] 0 | [16] 0.037

EPRS (UniProt P07814)
inactive: erlotinib 0.028 | [1] 0.032 | [2] -0.007 | [3] 0.01 | [4] 0.014 | [5] 0.017 | [6] -0.026 | [7] 0 | [8] -0.004 | IRAK-1-4 Inhibitor I -0.006 | ibrutinib -0.018 | [9] 0.002 | ralimetinib 0.01 | [10] 0.026 | [11] 0.02 | [12] -0.014 | [13] 0.02 | [14] -0.004 | [15] 0.046 | [16] 0.019

2 entries drawn at random from the list so far, as already listed:
EIF2AK4 (UniProt Q9P2K8)
inactive: erlotinib -0.029 | [1] 0.018 | [2] 0.017 | [3] 0.001 | [4] -0.014 | [5] 0.007 | [6] -0.026 | [7] 0.009 | [8] 0.016 | IRAK-1-4 Inhibitor I -0.002 | ibrutinib 0.026 | [9] -0.053 | ralimetinib 0.042 | [10] -0.032 | [11] 0.023 | [12] -0.005 | [13] -0.063 | [14] -0.003 | [15] -0.007 | [16] -0.021

EIF4E isoform 2 (UniProt P06730)
inactive: erlotinib -0.014 | [1] -0.251 | [2] -0.033 | [3] -0.031 | [4] 0.039 | [5] -0.008 | [6] -0.009 | [7] 0.053 | [8] -0.014 | IRAK-1-4 Inhibitor I -0.01 | ibrutinib 0.031 | [9] 0.006 | ralimetinib 0.006 | [10] 0.003 | [11] -0.033 | [12] 0.003 | [13] 0.001 | [14] 0 | [15] 0.018 | [16] 0.003

The list continues.

ENOSF1 (UniProt Q7L5Y1)
inactive: erlotinib -0.022 | [1] 0.021 | [2] 0.029 | [3] 0.032 | [4] 0.019 | [5] -0.024 | [6] -0.032 | [7] -0.002 | [8] 0 | IRAK-1-4 Inhibitor I -0.004 | ibrutinib 0.011 | [9] 0.039 | ralimetinib 0 | [10] 0.003 | [11] -0.039 | [12] -0.059 | [13] -0.044 | [14] 0.015 | [15] 0 | [16] 0.026

EIF4B (UniProt P23588)
inactive: erlotinib -0.001 | [1] 0.029 | [2] 0.012 | [3] -0.005 | [4] -0.007 | [5] 0.007 | [6] -0.012 | [7] 0.01 | [8] -0.023 | IRAK-1-4 Inhibitor I 0.014 | ibrutinib -0.031 | [9] 0.002 | ralimetinib -0.014 | [10] -0.01 | [11] 0.005 | [12] -0.036 | [13] 0.022 | [14] 0.017 | [15] -0.028 | [16] -0.019

ELOB (UniProt Q15370)
inactive: erlotinib -0.008 | [1] 0.019 | [2] -0.011 | [3] 0.021 | [4] -0.048 | [5] -0.023 | [6] -0.006 | [7] -0.007 | [8] 0.039 | IRAK-1-4 Inhibitor I -0.03 | ibrutinib 0 | [9] -0.029 | ralimetinib -0.004 | [10] -0.053 | [11] 0.024 | [12] -0.084 | [13] 0.019 | [14] 0.006 | [15] 0.005 | [16] 0.001

ELMOD2 (UniProt Q8IZ81)
inactive: erlotinib 0.005 | [1] 0.043 | [2] 0.033 | [3] -0.064 | [4] 0.043 | [5] -0.036 | [6] 0.021 | [7] -0.097 | [8] 0.049 | IRAK-1-4 Inhibitor I -0.031 | ibrutinib -0.025 | [9] -0.002 | ralimetinib 0.006 | [10] 0.007 | [11] 0.03 | [12] 0 | [13] 0.031 | [14] -0.003 | [15] -0.01 | [16] -0.004

EIF5A isoform 2 (UniProt P63241)
inactive: erlotinib -0.012 | [1] 0.001 | [2] 0.007 | [3] 0 | [4] 0.009 | [5] 0.024 | [6] 0.03 | [7] 0.014 | [8] 0.016 | IRAK-1-4 Inhibitor I -0.011 | ibrutinib 0.003 | [9] 0.012 | ralimetinib -0.017 | [10] -0.002 | [11] -0.009 | [12] -0.042 | [13] 0.001 | [14] 0.029 | [15] 0.014 | [16] -0.001
